Drawing on article PMC7819943, “Rice protein-binding microarrays: a tool to detect cis-acting elements near promoter regions in rice”, this text covers binding signal for 42 sequences.

Protein sequences, listed by entry. Tags and fused reporters are not part of them.
UniProt Q0JBA9, entry or part of it: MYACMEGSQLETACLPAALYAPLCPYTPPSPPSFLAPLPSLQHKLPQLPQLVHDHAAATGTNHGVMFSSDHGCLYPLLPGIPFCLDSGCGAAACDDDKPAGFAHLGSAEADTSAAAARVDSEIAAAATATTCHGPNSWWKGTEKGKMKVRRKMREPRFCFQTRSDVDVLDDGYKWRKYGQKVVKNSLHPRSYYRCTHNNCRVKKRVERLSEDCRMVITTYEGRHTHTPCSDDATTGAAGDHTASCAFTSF

Some of the results follow.

The target in this assay is OsWRKY34 (Oryza sativa, UniProt Q0JBA9 1-250). The experiment in a line: protein-binding microarray (RPBM); PBS, 2% BSA, 51.3 ng/ul salmon testes DNA, 50 uM zinc acetate, 200 nM TF, 25 C, 1 h; high values mean tight binding. Conditions: protein: recombinant; tags: N-terminal polyhistidine and DsRed monomer fusion (pET32a); label: CyDye5-dUTP incorporated in the synthesized complementary strand; 3' TTTTT single-stranded linker to array surface; dsDNA, one strand shown. In a few lines: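 Using Ni–NTA, transcription factors fused N-terminally to polyhistidine and DsRed were purified after expression in E. coli BL21-CodonPlus. These were incubated at 200 nM with a blocked, double-stranded custom Agilent array for 1 h at 25 °C in a buffer containing 50 µM zinc acetate, and the array was washed. The binding signal is per-feature fluorescence intensity (arbitrary units) on an Axon 4000B scanner.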
As for “GCTTCAATCCATATGATCTGTGTAACTGTCTGCCTTCCCTCGGAGTCACCTAGTGCAG”, the binding signal was 8240 fluorescence intensity (a.u.).

Take “ATCATCACACCTTTAGTACTTTTACTGCCATTCTTTTTTTCGGAGTCACCTAGTGCAG”: the binding signal is 13700 fluorescence intensity (a.u.).

Turning to “TATCCGGTTTTCTGGTTGAGGGGTATGAATTAGATTCGACCGGAGTCACCTAGTGCAG”, the binding signal is 10200 fluorescence intensity (a.u.).

Turning to “CCTCCGTGTTCCTGTCCGGCATTTATGATTTTCTCGCCTACGGAGTCACCTAGTGCAG”, the binding signal was 10100 fluorescence intensity (a.u.).

Consider “GCCGCCTCTGCACTGCGCCGCCTGCCTGCCTGCCGCGACCCGGAGTCACCTAGTGCAG”, for which the binding signal was 8810 fluorescence intensity (a.u.).

Regarding “TCCGTTTCGTTTTATTTGACACCGTTGACTTTTTAGCACACGGAGTCACCTAGTGCAG”, the binding signal was 19500 fluorescence intensity (a.u.).

For “TGATATCTTCTTGTTATTGTTTCCCTTAGTTGTCTGAGATCGGAGTCACCTAGTGCAG”, the binding signal was 8300 fluorescence intensity (a.u.).

With “GCCCCGAGTTTTGATTGGTTATTCGTTGCTGCTTGTAAACCGGAGTCACCTAGTGCAG”, the binding signal is 10900 fluorescence intensity (a.u.).

Regarding “GACGGCCCAGATCACGCGCGCTCCTCCGCTTTCCTTTTCCCGGAGTCACCTAGTGCAG”, the binding signal was 8430 fluorescence intensity (a.u.).

As for “TCACACACACGTTCCCAAACTTCTAAACCGTAATTTTAAACGGAGTCACCTAGTGCAG”, the binding signal was 8140 fluorescence intensity (a.u.).

As to “CCATTCCATCCAACATTTTGTCCATCCATATCGTCTACTCCGGAGTCACCTAGTGCAG”, the binding signal is 9200 fluorescence intensity (a.u.).

For “TCCATATGCCGTCTATATCTTTTTGTCATGGCAGCAGGAACGGAGTCACCTAGTGCAG”, the binding signal is 8210 fluorescence intensity (a.u.).

Regarding “GTGCTTTACTTACCAGCTGCCTGTTTTTTCTTCTCTTTCCCGGAGTCACCTAGTGCAG”, the binding signal was 10500 fluorescence intensity (a.u.).

As for “GCGGTCTCTTTTTGTTAATTCGCATTTCTTTATTTATTTACGGAGTCACCTAGTGCAG”, the binding signal is 13000 fluorescence intensity (a.u.).

“ATGTAGAGTCATCAGGTTTAGGCGCTTGGGTTTTGTTGGACGGAGTCACCTAGTGCAG”: the binding signal was 8070 fluorescence intensity (a.u.).

For “AAACTGGACGCTTCAATTCCACTGTCCCACTGTCCCACCCCGGAGTCACCTAGTGCAG”, the binding signal was 8160 fluorescence intensity (a.u.).

As for “TTCTTATTTGTCAACAATGTTTTTTTTTTGCGGGGATTATCGGAGTCACCTAGTGCAG”, the binding signal was 11500 fluorescence intensity (a.u.).

Regarding “TTTTAATATCATTTTTATTTGTGTTGAAAATTTTACTATACGGAGTCACCTAGTGCAG”, the binding signal is 8180 fluorescence intensity (a.u.).

Regarding “CTCCTCATCCCCACGCCACCGCCGCCATCGCCGGCCTTTTCGGAGTCACCTAGTGCAG”, the binding signal was 8220 fluorescence intensity (a.u.).

For the sequence “GCCTTGAATCCACCTGACCTGTGCCTCGTACTCCCATAATCGGAGTCACCTAGTGCAG”, the binding signal was 9730 fluorescence intensity (a.u.).

For “TTGGACACAGGTAGGATGGTTATTTTTTTGGGTGAGAGAACGGAGTCACCTAGTGCAG”, the binding signal is 8740 fluorescence intensity (a.u.).

Regarding “CACATTAACTCAGCCCTGCTTGGCCCTAGACGTGATCAATCGGAGTCACCTAGTGCAG”, the binding signal was 8830 fluorescence intensity (a.u.).

In the case of “ATTCTCCTCTCTCTCAATCGCTTCGCCCACCCGCTTGTCACGGAGTCACCTAGTGCAG”, the binding signal was 10600 fluorescence intensity (a.u.).

Turning to “ACCCAAAACCTACAGCATACACACTTGCTCCATTACACTTCGGAGTCACCTAGTGCAG”, the binding signal was 9940 fluorescence intensity (a.u.).

With “TTCCATGTTGCTATGGCTAGTTATCTTGAGTATTTACGTGCGGAGTCACCTAGTGCAG”, the binding signal was 10300 fluorescence intensity (a.u.).

As for “ATATTCCATCGATCCTACAAAATCTAAACAATTGTATGTTCGGAGTCACCTAGTGCAG”, the binding signal is 8290 fluorescence intensity (a.u.).

For “CCTTGCAACATGAAATTTTTTTTGTCCTGACATACTCATACGGAGTCACCTAGTGCAG”, the binding signal is 8150 fluorescence intensity (a.u.).

Take “GGATAATATGTCGATCCATTTTCTGATGCCATATCCCATCCGGAGTCACCTAGTGCAG”: the binding signal was 8150 fluorescence intensity (a.u.).

Take “CCCCACCCACCGCCTGCCAGCGCCACCCCACCTCGCGCCTCGGAGTCACCTAGTGCAG”: the binding signal is 11800 fluorescence intensity (a.u.).

Turning to “GTTCTCTCTCTGTATGTGTTTTATTGGAGTATTTGTCAGTCGGAGTCACCTAGTGCAG”, the binding signal was 8610 fluorescence intensity (a.u.).

With “CACCTGTATGCCTACTACTTTTGTCACCAACCCAATCCCCCGGAGTCACCTAGTGCAG”, the binding signal was 8330 fluorescence intensity (a.u.).

On to “GTCAAACGTTGGTTAAAAAGTCAACAGCATCATACATTAACGGAGTCACCTAGTGCAG”, for which the binding signal is 10400 fluorescence intensity (a.u.).

Turning to “TGGGCGCGTATTTTTCGTTTTTTCGTCTGGGCACTCCGTTCGGAGTCACCTAGTGCAG”, the binding signal was 11500 fluorescence intensity (a.u.).

“ACTCGTCGCCCTCTCATCTCATGTTGTAGTATTCCCTCCGCGGAGTCACCTAGTGCAG”: the binding signal was 8600 fluorescence intensity (a.u.).

As for “GGGTGGGCAAGATGCTCCTACGGCGGCTTCTTCTTTTGGCCGGAGTCACCTAGTGCAG”, the binding signal is 8270 fluorescence intensity (a.u.).

Consider “GGCATGCACCCACCTGGCATTTGCTGGCGCAACGGAGGTCCGGAGTCACCTAGTGCAG”, for which the binding signal was 8090 fluorescence intensity (a.u.).

In the case of “GCCGCCGCCGCCGCCGCCGCCGCTGTGTGTACGACTACGACGGAGTCACCTAGTGCAG”, the binding signal was 8090 fluorescence intensity (a.u.).

As to “CATTTCCTTGTTTGAATCTGCAAGAGTGCTAGTCACAGGCCGGAGTCACCTAGTGCAG”, the binding signal was 8470 fluorescence intensity (a.u.).

For “ATCAACCCGGTGTCTGCGTTACATTTCTCAATCTTCTGCTCGGAGTCACCTAGTGCAG”, the binding signal is 9860 fluorescence intensity (a.u.).

Consider “TTCTTTAGTCCCATGCTAGTATGATCATGTCCGATTGTCCCGGAGTCACCTAGTGCAG”, for which the binding signal is 9370 fluorescence intensity (a.u.).

For “GCGGGCGGCAGCGCGGTGGGGCGGTGGCGGTGGTGGCGGCCGGAGTCACCTAGTGCAG”, the binding signal was 9980 fluorescence intensity (a.u.).

As for “CGGGAGAGGGAGGTGATGATGGGGCGGCGGAGGATTGGAGCGGAGTCACCTAGTGCAG”, the binding signal is 8130 fluorescence intensity (a.u.).
